Source: PubChem BioAssay AID256 (DTP/NCI, 2004)
The list does not hold the whole screen: it gathers tests that were run many times, whatever their T/C, doses with no T/C, and many T/C values between a quarter and a half above the control. Other doses and runs of a compound stand elsewhere. T/C gives the treated animals as a percentage of the vehicle group. For survival time, the PubChem record calls one and a half times the control and up active, and a quarter to a half above the control has no call in these data; cut-offs in other NCI protocols can differ. Schedules are NCI's codes, taken here to give the interval after Q, in days (D) or hours (H), and the number of doses after X. Some T/C values are followed by the survivors on the day toxicity was checked, most often the fifth; without a count, all were alive then. Some doses were run more than once; their values stand side by side, smallest first. Additions like (4×) count equal records among those shown. Some schedules carry Z or #; the key to these is not given.

System: CD2F1 mice, L1210 leukemia ip, survival T/C
Assay: NCI In Vivo Anticancer Drug Screen. Data for tumor model L1210 Leukemia (intraperitoneal) in CD2F1 (CDF1) mice
Conditions: T/C endpoint: mean survival time, higher T/C = longer survival
In short: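 Compound-dosed mice with transplantable tumor versus matched vehicle controls; endpoint ratio T/C reported.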

## O=P1(N(CCCl)CCCl)NCCCO1 (centres undefined)
dose: 12.5 mg/kg/injection, schedule: Q01DX009 (ip), vehicle: water
  T/C: 101, 108, 111, 112, 114 (2×), 115 (3×), 116, 118 (2×), 124 (3×), 126, 132 % of control
dose: 20.0 mg/kg/injection, schedule: Q01DX007 (ip), vehicle: saline
  T/C: 133 % of control
dose: 20.0 mg/kg/injection, schedule: Q01DX009 (ip), vehicle: saline
  T/C: 126 and 138 % of control
dose: 25.0 mg/kg/injection, schedule: Q01DX001 (ip), vehicle: saline, evaluated on day 5
  T/C: 104 and 107 % of control
dose: 25.0 mg/kg/injection, schedule: Q01DX001 (ip), vehicle: saline, evaluated on day 7
  T/C: 113 % of control
dose: 25.0 mg/kg/injection, schedule: Q01DX001 (ip), vehicle: saline, evaluated on day 35
  T/C: 102 % of control
dose: 25.0 mg/kg/injection, schedule: Q01DX001 (ip), vehicle: saline, evaluated on day 40
  T/C: 113 % of control
dose: 25.0 mg/kg/injection, schedule: Q01DX001 (ip), vehicle: saline, evaluated on day 60
  T/C: 104 and 107 % of control
dose: 25.0 mg/kg/injection, schedule: Q01DX001 (ip), vehicle: water, evaluated on day 5
  T/C: 114 % of control
dose: 25.0 mg/kg/injection, schedule: Q01DX001 (ip), vehicle: water, evaluated on day 30
  T/C: 100 and 110 % of control
dose: 25.0 mg/kg/injection, schedule: Q01DX001 (ip), vehicle: water, evaluated on day 45
  T/C: 114 % of control
dose: 25.0 mg/kg/injection, schedule: Q01DX005 (ip), vehicle: water
  T/C: 119, 120, 130, 143 % of control
dose: 25.0 mg/kg/injection, schedule: Q01DX009 (ip), vehicle: saline
  T/C: 125 and 141 % of control
dose: 25.0 mg/kg/injection, schedule: Q01DX009 (ip), vehicle: water
  T/C: 115, 119, 124 (2×), 128, 129, 131, 132, 133, 134, 136 (2×), 138, 141, 146, 149 % of control (2×)
dose: 31.25 mg/kg/injection, schedule: Q01DX001 (ip), vehicle: water
  T/C: 111, 112 (2×), 113, 114, 117, 118, 125 % of control (2×)
dose: 37.5 mg/kg/injection, schedule: Q01DX001 (ip), vehicle: saline
  T/C: 103, 115, 118, 126, 150, 270 % of control
dose: 40.0 mg/kg/injection, schedule: Q01DX009 (ip), vehicle: saline
  T/C: 130 and 149 % of control
dose: 40.0 mg/kg/injection, schedule: Q04DX003 (ip), vehicle: saline
  T/C: 141 % of control
dose: 50.0 mg/kg/injection, schedule: Q01DX001 (ip), vehicle: DMSO
  T/C: 128 and 136 % of control
dose: 50.0 mg/kg/injection, schedule: Q01DX001 (ip), vehicle: saline, evaluated on day 5
  T/C: 114, 118, 143 % of control
dose: 50.0 mg/kg/injection, schedule: Q01DX001 (ip), vehicle: saline, evaluated on day 7
  T/C: 125 % of control
dose: 50.0 mg/kg/injection, schedule: Q01DX001 (ip), vehicle: saline, evaluated on day 30
  T/C: 107, 113, 117 [5 of 6 alive], 120 (2×), 123, 126 % of control
dose: 50.0 mg/kg/injection, schedule: Q01DX001 (ip), vehicle: saline, evaluated on day 35
  T/C: 110 and 143 % of control
dose: 50.0 mg/kg/injection, schedule: Q01DX001 (ip), vehicle: saline, evaluated on day 40
  T/C: 123 and 125 % of control
dose: 50.0 mg/kg/injection, schedule: Q01DX001 (ip), vehicle: saline, evaluated on day 60
  T/C: 114, 115, 118 % of control (2×)
dose: 50.0 mg/kg/injection, schedule: Q01DX001 (ip), vehicle: saline, evaluated on day 90
  T/C: 100, 110 (2×), 114, 115, 116 % of control (2×)
dose: 50.0 mg/kg/injection, schedule: Q01DX001 (ip), vehicle: water, evaluated on day 5
  T/C: 130 % of control
dose: 50.0 mg/kg/injection, schedule: Q01DX001 (ip), vehicle: water, evaluated on day 30
  T/C: 112, 115, 116, 117, 118 (2×), 123, 125, 130, 133, 141, 229 % of control
dose: 50.0 mg/kg/injection, schedule: Q01DX001 (ip), vehicle: water, evaluated on day 35
  T/C: 124 % of control
dose: 50.0 mg/kg/injection, schedule: Q01DX001 (ip), vehicle: water, evaluated on day 45
  T/C: 130 % of control
dose: 50.0 mg/kg/injection, schedule: Q01DX005 (ip), vehicle: water
  T/C: 143, 152, 166, 175 % of control
dose: 50.0 mg/kg/injection, schedule: Q01DX009 (ip), vehicle: water
  T/C: 95, 140, 148, 149, 152, 158, 169, 170, 171, 173, 174, 178 (2×), 181, 185, 190, 196 % of control
dose: 50.0 mg/kg/injection, schedule: Q04DX003 (ip), vehicle: saline
  T/C: 130 % of control
dose: 50.0 mg/kg/injection, schedule: Q## X001 (ip), vehicle: saline
  T/C: 126 % of control
dose: 60.0 mg/kg/injection, schedule: Q04DX003 (ip), vehicle: water
  T/C: 145 % of control
dose: 60.0 mg/kg/injection, schedule: Q12HX003 (ip), vehicle: saline
  T/C: 130 % of control
dose: 62.5 mg/kg/injection, schedule: Q01DX001 (ip), vehicle: DMSO, evaluated on day 20
  T/C: 121 % of control
dose: 62.5 mg/kg/injection, schedule: Q01DX001 (ip), vehicle: DMSO, evaluated on day 25
  T/C: 113 and 114 % of control
dose: 62.5 mg/kg/injection, schedule: Q01DX001 (ip), vehicle: DMSO, evaluated on day 40
  T/C: 125 % of control
dose: 62.5 mg/kg/injection, schedule: Q01DX001 (ip), vehicle: Klucel (hydroxypropylcellulose) (HPC)
  T/C: 134 % of control
dose: 62.5 mg/kg/injection, schedule: Q01DX001 (ip), vehicle: saline with Tween-80
  T/C: 128 % of control
dose: 62.5 mg/kg/injection, schedule: Q01DX001 (ip), vehicle: saline, evaluated on day 30
  T/C: 116, 121, 126, 130, 133 (2×), 134, 135, 136 % of control
dose: 62.5 mg/kg/injection, schedule: Q01DX001 (ip), vehicle: saline, evaluated on day 35
  T/C: 108, 115, 125, 140 % of control
dose: 62.5 mg/kg/injection, schedule: Q01DX001 (ip), vehicle: saline, evaluated on day 40
  T/C: 97 % of control
dose: 62.5 mg/kg/injection, schedule: Q01DX001 (ip), vehicle: saline, evaluated on day 45
  T/C: 116, 119, 142 % of control
dose: 62.5 mg/kg/injection, schedule: Q01DX001 (ip), vehicle: saline, evaluated on day 60
  T/C: 117 % of control
dose: 62.5 mg/kg/injection, schedule: Q01DX001 (ip), vehicle: water, evaluated on day 30
  T/C: 97, 110, 119, 120, 121 (3×), 122 (2×), 123 (3×), 124, 126, 127 (6×), 128, 129, 130 (2×), 131, 132 (3×), 134 (2×), 135, 136, 137 (2×), 138, 139, 142, 144 (2×), 145, 150, 151, 172 % of control
dose: 62.5 mg/kg/injection, schedule: Q01DX001 (ip), vehicle: water, evaluated on day 35
  T/C: 112 and 160 % of control
dose: 62.5 mg/kg/injection, schedule: Q01DX001 (ip), vehicle: water, evaluated on day 40
  T/C: 125 and 128 % of control
dose: 62.5 mg/kg/injection, schedule: Q01DX001 (ip), vehicle: water, evaluated on day 45
  T/C: 121 and 135 % of control
dose: 62.5 mg/kg/injection, schedule: Q01DX001 (ip), vehicle: water, evaluated on day 60
  T/C: 121 % of control
dose: 64.8 mg/kg/injection, schedule: Q01DX001 (ip), vehicle: water
  T/C: 142 % of control
dose: 75.0 mg/kg/injection, schedule: Q01DX001 (ip), vehicle: saline, evaluated on day 5
  T/C: 128 % of control
dose: 75.0 mg/kg/injection, schedule: Q01DX001 (ip), vehicle: saline, evaluated on day 30
  T/C: 124, 128, 132, 137, 146, 270 % of control
dose: 80.0 mg/kg/injection, schedule: Q01DX007 (ip), vehicle: saline
  T/C: 138 % of control
dose: 90.0 mg/kg/injection, schedule: Q01DX001 (ip), vehicle: saline
  T/C: 139 % of control
dose: 100.0 mg/kg/injection, schedule: Q01DX001 (ip), vehicle: DMSO, evaluated on day 30
  T/C: 141 % of control
dose: 100.0 mg/kg/injection, schedule: Q01DX001 (ip), vehicle: DMSO, evaluated on day 60
  T/C: 148 % of control
dose: 100.0 mg/kg/injection, schedule: Q01DX001 (ip), vehicle: Klucel (hydroxypropylcellulose) (HPC)
  T/C: 136 and 141 % of control
